Laboratory results: PubChem BioAssay AID1159584 (Peter MacCallum Cancer Centre, 2016)

Assay: 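Knock-downs that harm CDH1-null cells more than parental MCF10A cells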 (primary screen)
Cells: human MCF10A breast epithelial cells, parental and CDH1-null
Knock-down reagent: siRNA against human genes
Measurement: 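ATP luminescence (CellTiter-Glo) viability per line relative to mean mock wells over all plates, and the ratio of CDH1-null to parental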
Direction: CDH1-null / parental viability ratio: higher = CDH1-null cells survive relatively better than parental; CDH1-null viability vs mock: higher = more viable CDH1-null cells; parental viability vs mock: higher = more viable parental cells
Shown is a random part of about 18,000 deposited reagents. Reagent sequences are not shown. Not stated in the record: the amount of reagent, the time to read-out.

gene symbol | CDH1-null / parental viability ratio | CDH1-null viability vs mock (fraction of mock) | parental viability vs mock (fraction of mock)
ITGB5 | 1.22 | 0.9 | 0.74
HSDL2 | 1.31 | 0.71 | 0.54
SLC25A45 | 0.81 | 0.6 | 0.74
BCAR3 | 0.95 | 0.39 | 0.41
PRELID2 | 0.91 | 0.86 | 0.95
TMEM198 | 1.02 | 0.67 | 0.66
ESYT1 | 1.03 | 0.8 | 0.78
ZBTB39 | 1.07 | 0.88 | 0.82
DEFB116 | 0.84 | 0.64 | 0.76
MUC17 | 0.96 | 0.67 | 0.7
MYLK4 | 1.01 | 0.78 | 0.77
KRT77 | 1.2 | 1.08 | 0.9
UNCX | 1.05 | 0.92 | 0.88
TRIM54 | 0.96 | 0.98 | 1.02
PSMD2 | 1.28 | 0.41 | 0.32
PTPN23 | 1.45 | 0.9 | 0.62
MAT1A | 0.95 | 0.99 | 1.04
RIOK2 | 1.12 | 0.92 | 0.82
ARHGDIA | 0.84 | 0.76 | 0.9
PYCR1 | 1.15 | 0.99 | 0.86
HNRNPL | 1.04 | 0.5 | 0.48
ADGRG1 | 1.4 | 0.88 | 0.63
ORMDL3 | 1.13 | 0.97 | 0.86
ZDHHC11 | 1.21 | 0.46 | 0.38
CA7 | 1.05 | 0.9 | 0.86
FAM204A | 1.4 | 0.67 | 0.48
ANKRD39 | 0.98 | 0.8 | 0.82
AKAP8 | 0.91 | 0.6 | 0.66
METTL26 | 0.86 | 0.57 | 0.66
KL | 0.84 | 0.82 | 0.98
ACSBG2 | 0.97 | 0.91 | 0.94
TATDN1 | 1.12 | 0.48 | 0.43
ACP6 | 1.49 | 1.04 | 0.7
DNAJB9 | 0.98 | 1 | 1.02
ZC3H18 | 1.1 | 0.53 | 0.48
FHDC1 | 1 | 0.62 | 0.62
ZNF701 | 1.15 | 0.78 | 0.68
CASD1 | 0.98 | 1.25 | 1.27
COX16 | 1.46 | 1.11 | 0.76
NPBWR2 | 0.84 | 0.7 | 0.83

In a second layout: results already given.
gene symbol	CDH1-null / parental viability ratio	CDH1-null viability vs mock (fraction of mock)	parental viability vs mock (fraction of mock)
KRT77	1.2	1.08	0.9
UNCX	1.05	0.92	0.88
TRIM54	0.96	0.98	1.02

The results go on:
gene symbol | CDH1-null / parental viability ratio | CDH1-null viability vs mock (fraction of mock) | parental viability vs mock (fraction of mock)
BMP6 | 1.03 | 1.23 | 1.19
RIPOR1 | 0.94 | 0.68 | 0.72
SOCS5 | 0.84 | 0.62 | 0.74
BLTP3B | 1 | 0.69 | 0.69
KPRP | 1.14 | 0.41 | 0.36
GTF3C6 | 1.01 | 0.85 | 0.84
FMR1 | 1.29 | 0.54 | 0.42
NDUFB1 | 0.9 | 0.6 | 0.67
ADAT3 | 0.84 | 0.52 | 0.62
SLC25A26 | 1.38 | 0.44 | 0.32
MATR3 | 1.12 | 0.92 | 0.82
ASPDH | 1.03 | 0.78 | 0.76
CEP57 | 0.88 | 0.82 | 0.93
C14orf119 | 0.83 | 0.45 | 0.54
FAM153CP | 1.36 | 0.72 | 0.53
PPM1A | 1.31 | 0.81 | 0.62
NUB1 | 1.34 | 0.98 | 0.73
MCHR1 | 1.32 | 0.79 | 0.6
RBM7 | 1.6 | 0.88 | 0.55
ALX1 | 0.87 | 0.73 | 0.84
RPL39L | 1.17 | 0.88 | 0.75
FMN2 | 1.06 | 0.91 | 0.86
NANOS2 | 1.12 | 1.04 | 0.93
NRGN | 0.79 | 0.76 | 0.96
ZNF764 | 0.88 | 0.8 | 0.91
RPF1 | 0.86 | 0.57 | 0.66
TRIM13 | 0.91 | 0.88 | 0.97
GDPD5 | 2.03 | 0.59 | 0.29
